Assay results published in the supplement of paper PMC4604168 (melanoma cell lines).
This is one part of the list. Many values rest on one well or one pass, so single values are uncertain.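 Imaging used 1,536-well plates; nuclei positive for cleaved PARP by antibody were divided by total DNA-stained nuclei to yield the apoptosis fraction. Doses for screening kept most cells viable, and cell lines differ markedly in resting and induced cleaved-PARP levels.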

These compounds were tested on CBRC013 (line from a melanoma biopsy) (assay: cleaved PARP positive nuclei fraction relative to DMSO control; melanoma cells; higher = more apoptosis). Details: library dose: low library concentration; 72 h.

| SMILES | cleaved PARP positive nuclei fraction [%] |
| --- | --- |
| Cn1cncc1[C@@](N)(c1ccc(Cl)cc1)c1ccc2c(c1)c(-c1cccc(Cl)c1)cc(=O)n2C [tipifarnib] + c1cc(-c2cnn3cc(-c4ccc(OCCN5CCCCC5)cc4)cnc23)ccn1 [Dorsomorphin] (first compound 0.01 µM, partner dose 0.4 µM) | 56.4 |
| Cc1cc(N2CCOCC2)cc2[nH]c(-c3c(NC[C@@H](O)c4cccc(Cl)c4)cc[nH]c3=O)nc12 + Cn1cc(/C=C2\C(=O)Nc3cccnc32)c2ccccc21 [GW441756] (first compound 0.2 µM, partner dose 0.4 µM) | 182 |
| Cn1c(Nc2ccc(C(F)(F)F)cc2)nc2cc(Oc3ccnc(-c4ncc(C(F)(F)F)[nH]4)c3)ccc21 + Oc1nc(-c2ccc(C(F)(F)F)cc2)nc2c1CSCC2 [XAV939] (first compound 0.08 µM, partner dose 2 µM) | 285 |
| Cn1nnc2c(C(N)=O)ncn2c1=O [temozolomide] + CC(C)CCN1c2nc(Nc3cc(F)c(O)c(F)c3)ncc2N(C)C(=O)C1C [BID1870] (first compound 2 µM, partner dose 0.2 µM) | 55.5 |
| C[C@]1(c2nc3c(C(N)=O)cccc3[nH]2)CCCN1 [Veliparib] + O=C(O)C(=O)Nc1sc2c(c1C(=O)O)CCNC2 [TCS401] (first compound 1.4 µM, partner dose 1.66667 µM) | 149 |
| O=C(Nc1cccc(Cl)c1)Nc1ncc(CCNc2ncnc3ccsc23)s1 + COc1cc2ncnc(Nc3ccc(Oc4ccccc4)cc3)c2cc1OC [SrcI1] (first compound 0.0008 µM, partner dose 2 µM) | 46 |
| NC(=O)Nc1cc(-c2cccc(F)c2)sc1C(=O)N[C@H]1CCCNC1 + O=c1cc(-c2cccc3c2Sc2ccccc2S3)oc(N2CCOCC2)c1 [KU55933] (first compound 0.02 µM, partner dose 1 µM) | 212 |
| CC(C)(C)c1cnc(CSc2cnc(NC(=O)C3CCNCC3)s2)o1 + N#Cc1c(O)c2c(-c3ccc(-c4ccccc4O)cc3)csc2[nH]c1=O [A769662] (first compound 0.01 µM, partner dose 2 µM) | 72.7 |

An excerpt of these results, with bars between the fields.
SMILES | cleaved PARP positive nuclei fraction [%]
Cc1cc(N2CCOCC2)cc2[nH]c(-c3c(NC[C@@H](O)c4cccc(Cl)c4)cc[nH]c3=O)nc12 + Cn1cc(/C=C2\C(=O)Nc3cccnc32)c2ccccc21 [GW441756] (first compound 0.2 µM, partner dose 0.4 µM) | 182
Cn1c(Nc2ccc(C(F)(F)F)cc2)nc2cc(Oc3ccnc(-c4ncc(C(F)(F)F)[nH]4)c3)ccc21 + Oc1nc(-c2ccc(C(F)(F)F)cc2)nc2c1CSCC2 [XAV939] (first compound 0.08 µM, partner dose 2 µM) | 285
